Reference: publication PMC12201986
No constants are given. Whether binding was seen depends on the method and setting. In cells and extracts the contact can be indirect. Some binding calls cover weakened binding; strength is not graded here.

By UniProt entry, the sequences of proteins in these tests, tags left out.
UniProt Q8CFN5: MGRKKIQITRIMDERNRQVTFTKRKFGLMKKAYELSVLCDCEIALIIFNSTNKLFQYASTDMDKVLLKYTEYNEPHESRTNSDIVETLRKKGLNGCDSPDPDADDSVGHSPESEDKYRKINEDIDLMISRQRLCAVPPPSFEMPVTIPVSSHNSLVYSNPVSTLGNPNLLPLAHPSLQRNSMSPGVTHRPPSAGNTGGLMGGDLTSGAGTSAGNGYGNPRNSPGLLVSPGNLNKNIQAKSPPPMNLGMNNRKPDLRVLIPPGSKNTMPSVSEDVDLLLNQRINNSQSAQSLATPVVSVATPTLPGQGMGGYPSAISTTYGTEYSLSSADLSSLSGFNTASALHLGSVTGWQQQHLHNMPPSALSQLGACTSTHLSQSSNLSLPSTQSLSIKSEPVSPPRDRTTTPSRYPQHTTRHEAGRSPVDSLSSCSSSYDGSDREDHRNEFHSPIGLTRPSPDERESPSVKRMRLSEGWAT
UniProt Q6P9Z1: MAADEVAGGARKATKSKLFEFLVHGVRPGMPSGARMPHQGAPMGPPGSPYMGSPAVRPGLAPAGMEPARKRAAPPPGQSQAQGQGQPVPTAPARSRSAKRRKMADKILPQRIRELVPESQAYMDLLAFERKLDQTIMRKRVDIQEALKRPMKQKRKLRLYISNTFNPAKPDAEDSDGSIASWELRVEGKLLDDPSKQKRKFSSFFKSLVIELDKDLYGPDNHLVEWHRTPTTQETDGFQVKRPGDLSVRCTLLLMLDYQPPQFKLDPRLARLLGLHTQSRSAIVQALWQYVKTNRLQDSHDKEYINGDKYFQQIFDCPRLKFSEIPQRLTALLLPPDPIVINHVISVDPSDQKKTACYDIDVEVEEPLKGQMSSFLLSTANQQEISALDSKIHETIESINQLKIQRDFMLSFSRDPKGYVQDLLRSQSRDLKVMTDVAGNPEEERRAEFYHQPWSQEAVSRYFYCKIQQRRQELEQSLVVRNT

Key:
Flag/HA-tagged Mef2c = Flag/HA-tagged Mef2c (UniProt Q8CFN5); assay: co-IP; HEK293T cells transiently transfected with Myc-tagged Baf60c and Flag/HA-tagged Mef2a or Mef2c; lysate incubated with anti-HA agarose at 4°C overnight, washed five times, immunoblotting
[1] = biological target: Flag-HA tagged Baf60c (muscle-specific transgene, MCK-Bc mice) (UniProt Q6P9Z1); assay: co-IP; quadriceps muscle lysate of WT and MCK-Bc (Flag-HA tagged Baf60c transgenic) mice; incubated with anti-Flag agarose at 4°C overnight, washed five times, immunoblotting

| binding (Flag/HA-tagged Mef2c) | binding [1] | Substance |
| --- | --- | --- |
| binds | – | Myc-tagged Baf60c (from UniProt Q6P9Z1 1-483) |
| – | binds | endogenous Mef2c (from UniProt Q8CFN5 1-474) |
